These are yes or no findings as the source states them, for the method shown. Binding seen in cells or lysates may run through a third protein. Some binding calls cover weakened binding; strength is not graded here.
B1: TIA-1 (protein, UniProt P31483 1-386)
chain: MEDEMPKTLYVGNLSRDVTEALILQLFSQIGPCKNCKMIMDTAGNDPYCFVEFHEHRHAAAALAAMNGRKIMGKEVKVNWATTPSSQKKDTSSSTVVSTQRSQDHFHVFVGDLSPEITTEDIKAAFAPFGRISDARVVKDMATGKSKGYGFVSFFNKWDAENAIQQMGGQWLGGRQIRTNWATRKPPAPKSTYESNTKQLSYDEVVNQSSPSNCTVYCGGVTSGLTEQLMRQTFSPFGQIMEIRVFPDKGYSFVRFNSHESAAHAIVSVNGTTIEGHVVKCYWGKETLDMINPVQQQNQIGYPQPYGQWGQWYGNAQQIGQYMPNGWQVPAYGMYGQAWNQQGFNQTQSSAPWMGPNYGVQPPQGQNGSMLPNQPSGYRVAGYETQ
B2: G3BP2 (protein, UniProt Q9UN86 1-482)
chain: MVMEKPSPLLVGREFVRQYYTLLNKAPEYLHRFYGRNSSYVHGGVDASGKPQEAVYGQNDIHHKVLSLNFSECHTKIRHVDAHATLSDGVVVQVMGLLSNSGQPERKFMQTFVLAPEGSVPNKFYVHNDMFRYEDEVFGDSEPELDEESEDEVEEEQEERQPSPEPVQENANSGYYEAHPVTNGIEEPLEESSHEPEPEPESETKTEELKPQVEEKNLEELEEKSTTPPPAEPVSLPQEPPKAFSWASVTSKNLPPSGTVSSSGIPPHVKAPVSQPRVEAKPEVQSQPPRVREQRPRERPGFPPRGPRPGRGDMEQNDSDNRRIIRYPDSHQLFVGNLPHDIDENELKEFFMSFGNVVELRINTKGVGGKLPNFGFVVFDDSEPVQRILIAKPIMFRGEVRLNVEEKKTRAARERETRGGGDDRRDIRRNDRGPGGPRGIVGGGMMRDRDGRGPPPRGGMAQKLGSGRGTGQMEGRFTGQRR

Sequences of proteins named here, by UniProt entry; tags and fusion partners are left off.
UniProt P67809: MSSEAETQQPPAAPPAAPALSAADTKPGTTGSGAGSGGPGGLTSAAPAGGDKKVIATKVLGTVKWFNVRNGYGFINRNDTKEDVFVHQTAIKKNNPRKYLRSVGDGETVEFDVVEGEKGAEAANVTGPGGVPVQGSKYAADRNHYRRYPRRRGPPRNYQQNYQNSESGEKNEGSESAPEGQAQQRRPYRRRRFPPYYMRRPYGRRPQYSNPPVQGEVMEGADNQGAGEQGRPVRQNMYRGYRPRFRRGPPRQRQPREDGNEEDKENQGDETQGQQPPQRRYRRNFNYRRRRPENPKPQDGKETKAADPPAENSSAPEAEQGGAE
UniProt Q04637: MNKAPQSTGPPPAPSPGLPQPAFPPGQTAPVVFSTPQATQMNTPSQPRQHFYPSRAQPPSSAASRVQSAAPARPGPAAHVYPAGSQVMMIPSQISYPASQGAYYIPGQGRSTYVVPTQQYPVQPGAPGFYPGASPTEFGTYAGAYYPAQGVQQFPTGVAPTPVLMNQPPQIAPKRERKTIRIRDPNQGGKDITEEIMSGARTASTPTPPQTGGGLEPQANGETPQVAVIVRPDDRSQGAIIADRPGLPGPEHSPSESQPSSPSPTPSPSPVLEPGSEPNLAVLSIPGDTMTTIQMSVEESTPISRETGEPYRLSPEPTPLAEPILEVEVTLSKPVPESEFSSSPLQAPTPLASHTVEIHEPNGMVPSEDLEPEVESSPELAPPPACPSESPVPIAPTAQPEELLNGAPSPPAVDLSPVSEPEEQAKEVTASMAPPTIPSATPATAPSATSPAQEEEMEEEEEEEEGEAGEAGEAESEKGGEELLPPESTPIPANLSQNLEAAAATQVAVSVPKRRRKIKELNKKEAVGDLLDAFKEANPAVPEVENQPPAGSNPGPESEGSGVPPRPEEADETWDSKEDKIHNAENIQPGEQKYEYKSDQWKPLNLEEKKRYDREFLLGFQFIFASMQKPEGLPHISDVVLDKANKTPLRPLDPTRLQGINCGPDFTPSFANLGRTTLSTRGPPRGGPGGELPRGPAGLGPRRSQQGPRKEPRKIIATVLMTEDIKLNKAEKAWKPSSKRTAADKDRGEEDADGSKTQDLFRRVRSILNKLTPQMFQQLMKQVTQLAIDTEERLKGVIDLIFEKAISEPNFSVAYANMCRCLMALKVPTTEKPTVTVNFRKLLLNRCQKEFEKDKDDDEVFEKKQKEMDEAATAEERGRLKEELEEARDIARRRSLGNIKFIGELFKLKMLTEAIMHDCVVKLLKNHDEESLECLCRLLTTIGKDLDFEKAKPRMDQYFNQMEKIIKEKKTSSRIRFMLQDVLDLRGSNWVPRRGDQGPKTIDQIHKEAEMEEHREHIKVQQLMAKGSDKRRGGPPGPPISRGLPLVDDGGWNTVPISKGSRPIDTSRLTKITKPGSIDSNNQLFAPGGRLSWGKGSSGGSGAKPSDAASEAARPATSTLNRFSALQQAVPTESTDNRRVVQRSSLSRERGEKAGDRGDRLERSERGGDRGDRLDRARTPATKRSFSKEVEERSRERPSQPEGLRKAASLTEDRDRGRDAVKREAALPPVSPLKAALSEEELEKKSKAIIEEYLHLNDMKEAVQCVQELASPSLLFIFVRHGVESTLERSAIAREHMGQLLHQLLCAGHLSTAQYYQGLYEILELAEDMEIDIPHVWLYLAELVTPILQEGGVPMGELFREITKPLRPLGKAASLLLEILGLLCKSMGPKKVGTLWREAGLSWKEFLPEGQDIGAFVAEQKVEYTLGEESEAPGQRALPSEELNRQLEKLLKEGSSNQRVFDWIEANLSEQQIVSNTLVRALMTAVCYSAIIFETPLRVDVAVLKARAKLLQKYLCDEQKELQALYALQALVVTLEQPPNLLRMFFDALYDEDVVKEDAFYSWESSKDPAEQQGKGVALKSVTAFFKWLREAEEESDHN

target: G3BP1 (endogenous) (human (endogenous in PC-3)) (UniProt Q13283); assay: co-IP; pulldown of endogenous G3BP1 from PC-3 cells with anti-G3BP1 antibodies

binding, binds:
YB-1 (from UniProt P67809 1-324) (other; other documents disagree on this pair)
eIF4G1 (from UniProt Q04637 1-1599)
B1
B2

— article PMC7337521
